Reference: US12002595B2, “Separation of metal ions by liquid-liquid extraction” (priority 2016, dated 2024)

Tests used:
[1] = Extraction by HDEHP at constant pH with 3,4,3-LI(1,2-HOPO) as hold-back reagent; settings: 1 mM ligand, 0.1 M HNO3/1.9 M NaNO3
Method: (§1) In FIG. 26, aqueous phase: [ligand]=1 mM, buffer 0.1 M HNO3/1.9 M NaNO3. Organic phase: HDEHP diluted in kerosene. [HDEHP]=0.05, 0.10, 0.25, 0.50, 1.0, or 2.0 M. T=25° C. Volume organic phase/Volume aqueous phase=1. Initial metal concentrations: [Pu-242]=10 μM, [Am-243]=0.25 μM, or [Gd-153]=0.16 nM. Phases analyzed after one contact. Contact time: 30 min.
The separation factor values given here must been seen as lower limit since the extraction of Pu(IV) is near zero.
as §1, with “28,” for “26,”, “concentrations:” for “concentrations: [Pu-242]=10 μM,”, “min. Corresponding separation factors (SF) are given on the right Y-axis. SF Gd/Am=Ratio [Gd]/[Am] in the final organic phase/Ratio [Gd]/[Am] in the initial aqueous solution.” for “min.”

[2] = Separation of ^249Bk and ^249Cf at the mCi level using TODGA and 343HOPO
[3] = Extraction of plutonium(IV) by HDEHP as a function of pH with hold-back reagent; settings: 40 mM hold-back reagent, 0.5 M HDEHP
Method: All liquid-liquid extractions were conducted using a 1:1 organic to aqueous phase ratio for a total volume of 1 mL. Samples were pH adjusted by HNO3 and prepared for a final concentration of 1.0 M sodium lactate, 40 mM of hold-back reagent (160 mM in the case of the HOPO monomer), and 2.0 M Na^+. The concentration of the trivalent f-element was dependent on the availability and radioactivity of the isotopes. The organic phase consisted of 0.5 M HDEHP in kerosene. All samples were incubated in a thermostatic shaker held at 28° C. and rocked at 280 rpm for 90 minutes. To ensure complete phase separation, samples were left overnight at room temperature to equilibrate. Radioactive samples were analyzed by liquid scintillation counting (LSC). The analytical protocol consisted of diluting 10 uL of radioactive sample into 10 mL of Ultima Gold™. Ultima Gold™ is a commercially available analytical reagent commonly used for LSC. The resulting analytical samples were shaken for 10 min prior to counting on a Perkin-Elmer Packard Tri-Carb instrument (model B4430).
Data was analyzed by the distribution ratio (Dm), separation factor (SFm1/m2) and extraction percentage (% Extraction) as defined by Equations (6), (7) and (8), respectively. Equation (8) uses concentrations of the metal in each phase since the aqueous: organic ratio was 1. Both the organic and aqueous phases were analyzed after liquid-liquid extraction and phase separation. These calculation methods rely on the assumptions that no metal (M) is lost to sorption or precipitation and that no volume variation occurred during the mass transfer between the aqueous and organic phases.
In FIG. 18, aqueous phase: [ligand]=40 mM, buffer sodium lactate/sodium nitrate, organic phase: [HDEHP]=0.5 M, kerosene diluent. T=25° C. O/A=1, one contact. Initial metal concentrations: [Pu-242]=5 μM. Phases analyzed after one contact. Contact time: 30 min. Limit of detection: 0.03% of the initial Pu-242 activity. Data for separation of tetravalent metal ions from trivalent metal ions using 3,4,3-LI(1,2-HOPO) as a hold-back reagent for tetravalent metal ions are shown in TABLE 0.1.

[4] = Extraction by HDEHP at constant pH with 3,4,3-LI(1,2-HOPO) as hold-back reagent; settings: 1 mM ligand, 0.1 M HNO3/1.9 M NaNO3; remark: listed apart in the source
Method: as §1
The separation factor values given here must been seen as lower limit since the extraction of Pu(IV) is near zero. […]

[5] = Aqueous phase, O/A = 0.5, [343HOPO] = 1 mM
[6] = Aqueous phase, O/A = 1.0, [343HOPO] = 1 mM
[7] = Aqueous phase, O/A = 1.0, [343HOPO] = 5 mM
[8] = Aqueous phase, O/A = 1.0, [343HOPO] = 25 mM
[9] = Aqueous phase, O/A = 2.0, [343HOPO] = 1 mM
[10] = Organic phase, O/A = 0.5, [343HOPO] = 1 mM
[11] = Organic phase, O/A = 1.0, [343HOPO] = 1 mM
[12] = Organic phase, O/A = 1.0, [343HOPO] = 5 mM
[13] = Organic phase, O/A = 1.0, [343HOPO] = 25 mM
[14] = Organic phase, O/A = 2.0, [343HOPO] = 1 mM

## O=C(NCCCN(CCCCN(CCCNC(=O)c1cccc(=O)n1O)C(=O)c1cccc(=O)n1O)C(=O)c1cccc(=O)n1O)c1cccc(=O)n1O [3,4,3-LI(1,2-HOPO)]
[1]; HDEHP 0.05 M
  Activity in aqueous phase (cpm): 2326 cpm
  Activity in organic phase (cpm): 5 cpm
[1]; HDEHP 0.10 M
  Activity in aqueous phase (cpm): 2237 cpm
  Activity in organic phase (cpm): 30 cpm
[1]; HDEHP 0.25 M
  Activity in aqueous phase (cpm): 2195 cpm
  Activity in organic phase (cpm): 246 cpm
[1]; HDEHP 0.50 M
  Activity in aqueous phase (cpm): 1693 cpm
  Activity in organic phase (cpm): 735 cpm
[1]; HDEHP 1.00 M
  Activity in aqueous phase (cpm): 1297 cpm
  Activity in organic phase (cpm): 1296 cpm
[1]; HDEHP 2.00 M
  Activity in aqueous phase (cpm): 952 cpm
  Activity in organic phase (cpm): 1277 cpm
[2]; [5]
  Chemical purity, Bk: Bk: >99.8%
  Radiopurity, Bk: Bk: >99.999%
[2]; [6]
  Chemical purity, Bk: Bk: >99.8%
  Radiopurity, Bk: Bk: >99.999%
[2]; [7]
  Chemical purity, Bk: Bk: >99.8%
  Radiopurity, Bk: Bk: >99.999%
[2]; [8]
  Chemical purity, Bk: Bk: >99.8%
  Radiopurity, Bk: Bk: >99.999%
[2]; [9]
  Chemical purity, Bk: Bk: >99.8%
  Radiopurity, Bk: Bk: >99.999%
[2]; [10]
  Chemical purity, Cf: Cf: 99.71%
  Radiopurity, Bk: Bk: 52.70%
  Radiopurity, Cf: Cf: 47.30%
[2]; [11]
  Chemical purity, Cf: Cf: 99.5%
  Radiopurity, Bk: Bk: 64.85%
  Radiopurity, Cf: Cf: 35.15%
[2]; [12]
  Chemical purity, Cf: Cf: 99.0%
  Radiopurity, Bk: Bk: 79.72%
  Radiopurity, Cf: Cf: 20.28%
[2]; [13]
  Chemical purity, Cf: Cf: 98.6%
  Radiopurity, Bk: Bk: 84.94%
  Radiopurity, Cf: Cf: 15.06%
[2]; [14]
  Chemical purity, Cf: Cf: 99.4%
  Radiopurity, Bk: Bk: 70.60%
  Radiopurity, Cf: Cf: 29.40%
[2]; single step, 3 M HNO3, TODGA
  chemical purity of ^249Bk in the aqueous phase: > 99.8%
  chemical purity of ^249Cf in the organic phase: > 99.5%
  radiopurity of ^249Bk recovered in the aqueous phase: > 99.999%
[3]; pH 0.25
  Activity in aqueous phase (cpm): 2791 cpm
  Activity in organic phase (cpm): 0 cpm
[3]; pH 0.85
  Activity in aqueous phase (cpm): 3325 cpm
  Activity in organic phase (cpm): 0 cpm
[3]; pH 1.78
  Activity in aqueous phase (cpm): 3310 cpm
  Activity in organic phase (cpm): 0 cpm
[3]; pH 2.71
  Activity in aqueous phase (cpm): 3219 cpm
  Activity in organic phase (cpm): 0 cpm
[3]; pH 2.87
  Activity in aqueous phase (cpm): 3339 cpm
  Activity in organic phase (cpm): 0 cpm
[3]; pH 3.62
  Activity in aqueous phase (cpm): 3185 cpm
  Activity in organic phase (cpm): 0 cpm
[3]; pH 4.52
  Activity in aqueous phase (cpm): 2896 cpm
  Activity in organic phase (cpm): 0 cpm
[4]; HDEHP 0.05 M
  Activity in aqueous phase (cpm): 48361 cpm
  Activity in organic phase (cpm): 2505 cpm
[4]; HDEHP 0.10 M
  Activity in aqueous phase (cpm): 38983 cpm
  Activity in organic phase (cpm): 12170 cpm
[4]; HDEHP 0.25 M
  Activity in aqueous phase (cpm): 14376 cpm
  Activity in organic phase (cpm): 40716 cpm
[4]; HDEHP 0.50 M
  Activity in aqueous phase (cpm): 4362 cpm
  Activity in organic phase (cpm): 51171 cpm
[4]; HDEHP 1.00 M
  Activity in aqueous phase (cpm): 1207 cpm
  Activity in organic phase (cpm): 55033 cpm
[4]; HDEHP 2.00 M
  Activity in aqueous phase (cpm): 419 cpm
  Activity in organic phase (cpm): 56084 cpm

## O=C(O)CN(CCN(CC(=O)O)CC(=O)O)CCN(CC(=O)O)CC(=O)O [DTPA, Diethylenetriaminepentaacetic acid, reference compound]
[3]; pH 0.40
  Activity in aqueous phase (cpm): 209 cpm
  Activity in organic phase (cpm): 4181 cpm
[3]; pH 1.27
  Activity in aqueous phase (cpm): 2585 cpm
  Activity in organic phase (cpm): 110 cpm
[3]; pH 1.84
  Activity in aqueous phase (cpm): 2951 cpm
  Activity in organic phase (cpm): 35 cpm
[3]; pH 2.55
  Activity in aqueous phase (cpm): 2995 cpm
  Activity in organic phase (cpm): 19 cpm
[3]; pH 2.75
  Activity in aqueous phase (cpm): 3121 cpm
  Activity in organic phase (cpm): 23 cpm
[3]; pH 3.45
  Activity in aqueous phase (cpm): 3379 cpm
  Activity in organic phase (cpm): 22 cpm
[3]; pH 4.29
  Activity in aqueous phase (cpm): 3491 cpm
  Activity in organic phase (cpm): 10 cpm
